Experimental data: the supplement of paper PMC10338343
± gives the standard deviation. Only a part is listed here, and it is no random draw. The uncertainty is large for many entries.

Each sequence was assayed on MILI (PIWIL2) piRISC loaded with L1MC piRNA (26 nt) (assay: pre-steady-state target cleavage rate (min^-1); MIWI and MILI are mouse PIWI proteins and EfPiwi is from a freshwater sponge; tags in brackets are library labels; higher = faster piRNA-guided slicing of the target). Settings: guide: L1MC piRNA 5'p-UAACUAAAUACUAUGCAAGCUGUAGG; auxiliary factor: 500 nM mouse GTSF1.
Summary of the method: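 With or without 500 nM GTSF1 partner protein, 1 nM active affinity-purified piRISC carrying one synthetic guide was mixed with 0.1 nM transcribed, DNA-blocked target RNA library in HEPES–potassium acetate buffer at 33 °C for 0–8 or 0–960 min. Uncleaved targets were sequenced and normalised to depth and to weakly complementary targets, three trials were pooled, and k3 was capped at 0.0001 min^-1. The pre-steady-state cleavage rate came from a burst-and-steady-state fit.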

Row | Sequence | pre-steady-state target cleavage rate
1 | UCCUGGUACAGCUAGGAUAGUAUUUAGUUA | 0.191 ± 0.026
2 | UCCUCCUUCAGCUUGCAAAGUAUUUAGUUA | 0.162 ± 0.015
3 | UCCUGGAUGUCGUUGCAUACUUUUUAGUUA | 0.000761 ± 0.009
4 | UCCUCCUACAGCUUGCAUAGUAUUUAAUUA | 0.11 ± 0.019
5 | UCCUGGUACAGCUUGCAUUGUAUUUAGUAA | 0.112 ± 0.024
6 | UCCUGGUACAGCUUGCAUUGUAUAUAGUUA | 0.087 ± 0.018
7 | UCCUGGAUGAGCUUGCAUAGUAUUGAGUUA | 0.164 ± 0.036
8 | UCCUCCUACAGCUUGCAUAGUAGUUUAGUUA | 0.23 ± 0.022
9 | UCCUGGAUGAGCAUGCAUAGAAUUUAGUUA | 0.0184 ± 0.008
10 | UCCUGGAUGUCGUUGGAUACUAUUUAGUUA | < 0.0001
11 | UCCUGGAUCUCGUUGCAUAGUAUUUAGUAA | 0.114 ± 0.018
12 | UCCUGGAUGAGCUUGCAUAGUAGUUAGUUA | 0.158 ± 0.026
13 | UCCUGGAUCAGCUUGCAUAGUAUUAGUUA | 0.141 ± 0.018
14 | UCCUGGAACAGCUUGCAUAGUAGUUAGUUA | 0.138 ± 0.018
15 | UCCUGGAUGUGCUUGCAUAGGAUUUAGUUA | 0.0028 ± 0.0045
16 | UCCUGGAUGAGCUUGCAUACUAUUUAGUAA | 0.00877 ± 0.0036
17 | UCCUCCUACAGCUUGCUUAGUAUUUUGUUA | 0.133 ± 0.016
18 | UCCUCCUACUGCUUGCAUAGUAUUUACUUA | 0.0701 ± 0.013
19 | UCCUCGAACAGCUUGCAUAGUAUUUAGUAA | 0.242 ± 0.015
20 | UCCUGGAUCAGCUUGCAUAGUAUAAAGUUA | 0.171 ± 0.018
21 | UCCUGGAUGAUGCUUGCAUAGUAUUUAGUUA | 0.228 ± 0.023
22 | UCCUGCUACAGCUUGCAUCAGUAUUUAGUUA | 0.015 ± 0.0065
23 | UCCUGGAUGUGCUUGCAUAGUAUUUAAUUA | 0.0357 ± 0.011
24 | UCCUCCUACAGCUUGCUAUGUAUUUAGUUA | 0.0502 ± 0.011

Two entries from above, as comma-separated lines:
Row,Sequence,pre-steady-state target cleavage rate
3,UCCUGGAUGUCGUUGCAUACUUUUUAGUUA,0.000761 ± 0.009
4,UCCUCCUACAGCUUGCAUAGUAUUUAAUUA,0.11 ± 0.019
